Measurements taken from the supplement of paper PMC7666118.
The list shows a part of the results.

Protein sequences, listed by entry. Tags and fused reporters are not part of them. Lines headed by an entry give the natural chain unless they say otherwise; changes in a name come on top.
UniProt Q5XKP0: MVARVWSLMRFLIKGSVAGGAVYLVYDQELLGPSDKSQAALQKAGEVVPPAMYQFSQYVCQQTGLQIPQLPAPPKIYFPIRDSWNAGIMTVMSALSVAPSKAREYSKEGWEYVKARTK
UniProt Q6NVV7: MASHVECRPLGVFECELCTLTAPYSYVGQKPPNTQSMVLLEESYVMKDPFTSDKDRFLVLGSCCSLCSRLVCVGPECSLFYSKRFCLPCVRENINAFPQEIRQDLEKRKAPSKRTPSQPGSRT
UniProt Q9H7Z3: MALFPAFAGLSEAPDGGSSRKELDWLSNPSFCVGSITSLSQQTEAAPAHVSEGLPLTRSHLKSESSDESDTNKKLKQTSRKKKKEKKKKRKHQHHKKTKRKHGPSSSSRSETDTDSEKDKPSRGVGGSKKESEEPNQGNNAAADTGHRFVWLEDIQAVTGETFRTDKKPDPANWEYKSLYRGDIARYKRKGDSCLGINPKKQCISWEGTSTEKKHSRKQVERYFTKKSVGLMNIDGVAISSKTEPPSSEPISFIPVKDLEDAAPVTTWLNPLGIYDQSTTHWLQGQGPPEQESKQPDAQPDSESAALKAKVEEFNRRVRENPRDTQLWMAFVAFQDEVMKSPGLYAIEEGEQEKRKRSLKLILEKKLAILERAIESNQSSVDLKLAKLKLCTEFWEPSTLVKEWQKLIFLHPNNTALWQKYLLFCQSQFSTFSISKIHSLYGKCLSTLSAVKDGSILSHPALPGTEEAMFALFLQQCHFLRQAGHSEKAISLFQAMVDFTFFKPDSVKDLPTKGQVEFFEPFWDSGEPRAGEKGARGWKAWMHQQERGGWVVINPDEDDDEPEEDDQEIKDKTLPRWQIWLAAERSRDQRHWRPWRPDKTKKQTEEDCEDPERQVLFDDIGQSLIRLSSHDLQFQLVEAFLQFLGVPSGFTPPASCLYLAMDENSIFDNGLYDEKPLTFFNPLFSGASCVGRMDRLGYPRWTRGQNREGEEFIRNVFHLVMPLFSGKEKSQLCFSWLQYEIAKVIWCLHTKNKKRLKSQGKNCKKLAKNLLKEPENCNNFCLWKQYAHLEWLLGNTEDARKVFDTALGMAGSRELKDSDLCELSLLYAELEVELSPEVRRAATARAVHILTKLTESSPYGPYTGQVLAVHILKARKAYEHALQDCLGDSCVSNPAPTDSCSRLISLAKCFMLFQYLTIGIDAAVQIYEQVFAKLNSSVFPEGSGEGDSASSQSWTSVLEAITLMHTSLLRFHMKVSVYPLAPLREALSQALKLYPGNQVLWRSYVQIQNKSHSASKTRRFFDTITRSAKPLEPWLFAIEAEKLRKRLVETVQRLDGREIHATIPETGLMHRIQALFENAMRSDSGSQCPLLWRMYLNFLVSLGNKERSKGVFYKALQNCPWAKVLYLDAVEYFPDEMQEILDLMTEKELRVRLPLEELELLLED
UniProt Q9UK61: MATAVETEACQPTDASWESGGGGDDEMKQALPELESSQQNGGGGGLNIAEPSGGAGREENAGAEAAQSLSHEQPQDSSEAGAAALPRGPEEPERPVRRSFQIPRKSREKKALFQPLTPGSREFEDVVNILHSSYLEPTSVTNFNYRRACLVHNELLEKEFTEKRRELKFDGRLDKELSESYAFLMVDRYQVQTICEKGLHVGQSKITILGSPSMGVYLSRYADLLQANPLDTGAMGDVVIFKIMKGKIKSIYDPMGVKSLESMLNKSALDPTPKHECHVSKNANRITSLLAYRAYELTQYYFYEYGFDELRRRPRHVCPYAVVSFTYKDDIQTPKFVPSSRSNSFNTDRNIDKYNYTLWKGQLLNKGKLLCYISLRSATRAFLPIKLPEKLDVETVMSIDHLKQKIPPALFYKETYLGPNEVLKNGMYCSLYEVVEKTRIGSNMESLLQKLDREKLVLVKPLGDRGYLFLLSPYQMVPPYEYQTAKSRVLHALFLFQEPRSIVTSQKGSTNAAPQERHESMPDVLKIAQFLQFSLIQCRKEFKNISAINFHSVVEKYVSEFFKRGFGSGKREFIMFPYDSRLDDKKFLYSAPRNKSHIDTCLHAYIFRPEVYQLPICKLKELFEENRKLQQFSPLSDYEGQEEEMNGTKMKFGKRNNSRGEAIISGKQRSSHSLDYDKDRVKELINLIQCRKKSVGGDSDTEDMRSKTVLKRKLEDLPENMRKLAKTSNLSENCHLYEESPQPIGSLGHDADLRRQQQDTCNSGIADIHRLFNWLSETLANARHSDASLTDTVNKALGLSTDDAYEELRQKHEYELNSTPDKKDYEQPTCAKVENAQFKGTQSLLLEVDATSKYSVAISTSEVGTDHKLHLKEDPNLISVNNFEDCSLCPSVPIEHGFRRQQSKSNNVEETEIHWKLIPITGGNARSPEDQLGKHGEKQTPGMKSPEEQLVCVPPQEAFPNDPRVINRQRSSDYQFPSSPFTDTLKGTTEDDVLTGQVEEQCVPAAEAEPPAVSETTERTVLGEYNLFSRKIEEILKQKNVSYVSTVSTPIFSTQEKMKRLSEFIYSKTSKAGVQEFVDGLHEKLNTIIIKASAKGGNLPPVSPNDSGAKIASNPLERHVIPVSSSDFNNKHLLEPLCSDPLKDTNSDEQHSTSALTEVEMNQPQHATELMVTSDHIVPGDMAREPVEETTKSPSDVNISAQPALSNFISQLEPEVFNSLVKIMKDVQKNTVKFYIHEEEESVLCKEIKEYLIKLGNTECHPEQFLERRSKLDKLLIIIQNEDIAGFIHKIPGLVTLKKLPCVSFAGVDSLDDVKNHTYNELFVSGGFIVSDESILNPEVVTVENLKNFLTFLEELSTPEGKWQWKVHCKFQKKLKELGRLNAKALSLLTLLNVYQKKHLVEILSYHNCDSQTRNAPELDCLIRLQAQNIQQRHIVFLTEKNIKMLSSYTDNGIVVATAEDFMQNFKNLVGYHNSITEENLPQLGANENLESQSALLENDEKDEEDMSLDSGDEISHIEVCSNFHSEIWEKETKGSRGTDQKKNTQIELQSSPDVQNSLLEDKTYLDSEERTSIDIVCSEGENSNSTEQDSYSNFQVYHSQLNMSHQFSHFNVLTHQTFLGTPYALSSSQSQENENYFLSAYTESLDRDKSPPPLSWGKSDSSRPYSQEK
UniProt Q5TGZ0: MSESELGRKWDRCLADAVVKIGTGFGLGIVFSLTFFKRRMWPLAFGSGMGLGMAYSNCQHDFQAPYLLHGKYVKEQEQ
UniProt P31944: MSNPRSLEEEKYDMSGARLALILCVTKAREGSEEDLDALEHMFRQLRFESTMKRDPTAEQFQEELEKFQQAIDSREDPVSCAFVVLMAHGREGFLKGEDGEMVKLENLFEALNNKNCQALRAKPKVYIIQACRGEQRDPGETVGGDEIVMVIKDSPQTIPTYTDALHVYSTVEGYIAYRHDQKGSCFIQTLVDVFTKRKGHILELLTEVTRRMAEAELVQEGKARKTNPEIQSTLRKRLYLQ
UniProt Q96B23: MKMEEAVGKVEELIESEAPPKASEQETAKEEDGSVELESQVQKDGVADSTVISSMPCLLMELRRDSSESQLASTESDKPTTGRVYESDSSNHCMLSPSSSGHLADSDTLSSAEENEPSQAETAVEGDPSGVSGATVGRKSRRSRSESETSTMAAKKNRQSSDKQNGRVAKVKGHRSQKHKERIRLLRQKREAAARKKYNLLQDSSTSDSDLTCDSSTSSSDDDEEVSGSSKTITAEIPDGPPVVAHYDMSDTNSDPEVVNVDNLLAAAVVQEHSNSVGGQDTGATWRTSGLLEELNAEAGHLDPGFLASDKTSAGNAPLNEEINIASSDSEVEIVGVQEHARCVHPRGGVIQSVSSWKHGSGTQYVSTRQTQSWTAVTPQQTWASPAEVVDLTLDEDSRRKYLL
UniProt A2RUC4: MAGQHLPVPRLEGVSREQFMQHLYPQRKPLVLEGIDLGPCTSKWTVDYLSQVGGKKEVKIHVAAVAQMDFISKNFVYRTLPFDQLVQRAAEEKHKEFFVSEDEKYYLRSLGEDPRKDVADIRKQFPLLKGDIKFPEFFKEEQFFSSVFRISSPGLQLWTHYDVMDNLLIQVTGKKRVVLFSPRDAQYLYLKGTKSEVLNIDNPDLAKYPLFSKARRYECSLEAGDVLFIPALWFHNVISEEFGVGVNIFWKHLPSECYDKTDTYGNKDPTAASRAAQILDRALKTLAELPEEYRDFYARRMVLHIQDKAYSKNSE
UniProt Q6ZNW5: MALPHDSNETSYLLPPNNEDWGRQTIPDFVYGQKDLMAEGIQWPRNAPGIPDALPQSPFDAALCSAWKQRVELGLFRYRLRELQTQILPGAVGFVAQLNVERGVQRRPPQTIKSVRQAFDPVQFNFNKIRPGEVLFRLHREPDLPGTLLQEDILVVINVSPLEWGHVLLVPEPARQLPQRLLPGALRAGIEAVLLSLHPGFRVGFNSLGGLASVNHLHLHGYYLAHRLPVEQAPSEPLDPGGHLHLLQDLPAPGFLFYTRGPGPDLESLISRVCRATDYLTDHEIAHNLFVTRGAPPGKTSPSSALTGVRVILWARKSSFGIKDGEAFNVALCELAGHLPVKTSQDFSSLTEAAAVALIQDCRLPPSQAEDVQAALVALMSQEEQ
UniProt Q8ND04: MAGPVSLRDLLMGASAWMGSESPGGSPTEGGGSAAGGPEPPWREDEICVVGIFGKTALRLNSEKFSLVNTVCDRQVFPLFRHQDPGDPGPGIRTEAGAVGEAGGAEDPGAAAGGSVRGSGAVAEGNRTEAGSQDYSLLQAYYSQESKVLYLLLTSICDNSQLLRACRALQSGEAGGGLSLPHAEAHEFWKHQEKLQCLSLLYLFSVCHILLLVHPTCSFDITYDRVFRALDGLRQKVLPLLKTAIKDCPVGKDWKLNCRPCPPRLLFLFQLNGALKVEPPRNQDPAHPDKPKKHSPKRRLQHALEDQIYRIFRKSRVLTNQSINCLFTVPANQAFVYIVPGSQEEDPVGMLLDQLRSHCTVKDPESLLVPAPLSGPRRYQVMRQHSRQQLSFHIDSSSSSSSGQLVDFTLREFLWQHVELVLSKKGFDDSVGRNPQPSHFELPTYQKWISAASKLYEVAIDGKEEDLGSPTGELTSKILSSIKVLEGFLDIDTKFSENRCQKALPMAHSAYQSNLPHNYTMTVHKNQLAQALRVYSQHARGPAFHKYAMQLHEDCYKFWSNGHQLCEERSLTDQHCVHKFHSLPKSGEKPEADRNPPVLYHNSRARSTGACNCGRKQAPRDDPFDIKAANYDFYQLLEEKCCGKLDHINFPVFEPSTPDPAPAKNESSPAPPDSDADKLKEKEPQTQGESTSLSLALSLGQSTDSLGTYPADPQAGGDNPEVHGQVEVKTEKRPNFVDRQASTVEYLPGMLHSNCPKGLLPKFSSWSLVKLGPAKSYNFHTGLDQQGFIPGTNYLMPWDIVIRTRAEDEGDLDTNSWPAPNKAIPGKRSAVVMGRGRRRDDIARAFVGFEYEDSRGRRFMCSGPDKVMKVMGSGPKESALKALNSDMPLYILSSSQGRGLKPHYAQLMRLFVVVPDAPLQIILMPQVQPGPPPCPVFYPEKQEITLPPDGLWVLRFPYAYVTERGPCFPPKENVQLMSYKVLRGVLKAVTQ
UniProt Q969H8: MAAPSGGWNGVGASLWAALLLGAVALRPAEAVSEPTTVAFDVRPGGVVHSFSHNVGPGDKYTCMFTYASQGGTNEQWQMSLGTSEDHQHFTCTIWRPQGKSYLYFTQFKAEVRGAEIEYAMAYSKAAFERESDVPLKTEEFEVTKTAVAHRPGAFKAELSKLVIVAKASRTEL
UniProt Q8N884, whole entry: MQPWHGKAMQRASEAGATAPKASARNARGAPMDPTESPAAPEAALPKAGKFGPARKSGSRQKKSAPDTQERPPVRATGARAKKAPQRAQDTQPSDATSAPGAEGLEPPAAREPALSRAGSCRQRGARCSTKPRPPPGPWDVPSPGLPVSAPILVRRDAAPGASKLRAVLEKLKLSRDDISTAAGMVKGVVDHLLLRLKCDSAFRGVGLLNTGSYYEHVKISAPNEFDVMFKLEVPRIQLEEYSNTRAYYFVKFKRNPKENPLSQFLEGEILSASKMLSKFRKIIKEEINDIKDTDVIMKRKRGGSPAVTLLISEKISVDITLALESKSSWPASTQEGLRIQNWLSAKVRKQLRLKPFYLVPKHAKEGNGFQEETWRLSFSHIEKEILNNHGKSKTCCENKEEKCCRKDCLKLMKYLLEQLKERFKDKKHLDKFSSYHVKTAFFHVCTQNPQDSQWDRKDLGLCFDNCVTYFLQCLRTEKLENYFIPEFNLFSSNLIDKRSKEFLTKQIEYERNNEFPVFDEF
UniProt Q9BV19: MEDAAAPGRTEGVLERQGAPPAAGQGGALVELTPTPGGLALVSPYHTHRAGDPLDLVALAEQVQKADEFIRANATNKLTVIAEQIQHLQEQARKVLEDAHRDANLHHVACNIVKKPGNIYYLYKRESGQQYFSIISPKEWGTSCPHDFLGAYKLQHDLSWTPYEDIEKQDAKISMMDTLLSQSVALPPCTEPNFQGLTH
UniProt Q8N5L8: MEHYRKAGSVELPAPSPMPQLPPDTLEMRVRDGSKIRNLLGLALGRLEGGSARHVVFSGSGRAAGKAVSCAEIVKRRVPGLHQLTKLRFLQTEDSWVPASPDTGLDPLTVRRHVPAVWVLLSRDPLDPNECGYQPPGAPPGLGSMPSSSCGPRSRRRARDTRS

Compound: COc1ccc(Cn2ccc3ccc(C(=O)NO)cc32)cc1
Assay: dose-dependent thermal stabilisation call (2D-TPP, DLPTP, 10% FDR) (binary (1 = stabilised)); higher = stabilised by the compound
Settings: system: HL-60 intact cells; concentration range 0.04-10 µM

Target | dose-dependent thermal stabilisation call
C19ORF70 (UniProt Q5XKP0) | inactive: 0
C14ORF80 (UniProt Q86SX3) | inactive: 0
C22ORF40 (UniProt Q6NVV7) | inactive: 0
C20ORF20 (UniProt Q9NV56) | inactive: 0
C2ORF29 (UniProt Q9UKZ1) | inactive: 0
C14ORF102 (UniProt Q9H7Z3) | inactive: 0
C3ORF63 (UniProt Q9UK61) | inactive: 0
C18ORF21 (UniProt Q32NC0) | inactive: 0
CBL (UniProt P22681) | inactive: 0
C14ORF149 (UniProt Q96EM0) | inactive: 0
C1ORF151 (UniProt Q5TGZ0) | inactive: 0
CASP14 (UniProt P31944) | inactive: 0
C9ORF89 (UniProt Q96LW7) | inactive: 0
C18ORF25 (UniProt Q96B23) | inactive: 0
CAPZA2 (UniProt P47755) | inactive: 0
CARM1 (UniProt Q86X55) | inactive: 0
C2ORF60 (UniProt A2RUC4) | inactive: 0
C16ORF88 (UniProt Q1ED39) | inactive: 0
C15ORF58 (UniProt Q6ZNW5) | inactive: 0
C17ORF71 (UniProt Q8ND04) | inactive: 0
C3ORF37 (UniProt Q96FZ2) | inactive: 0
C19ORF10 (UniProt Q969H8) | inactive: 0
C6ORF150 (UniProt Q8N884) | inactive: 0
C1ORF50 (UniProt Q9BV19) | inactive: 0
C9ORF23 (UniProt Q8N5L8) | inactive: 0

In another format: entries from further up.
C19ORF70 (UniProt Q5XKP0)
  dose-dependent thermal stabilisation call: inactive: 0
C14ORF80 (UniProt Q86SX3)
  dose-dependent thermal stabilisation call: inactive: 0
